Data: article doi:10.1101/2025.01.15.633117

The chains behind the UniProt entries cited, without tags or fusion partners. Residues count along the entry.
UniProt P29317, residues 24-976: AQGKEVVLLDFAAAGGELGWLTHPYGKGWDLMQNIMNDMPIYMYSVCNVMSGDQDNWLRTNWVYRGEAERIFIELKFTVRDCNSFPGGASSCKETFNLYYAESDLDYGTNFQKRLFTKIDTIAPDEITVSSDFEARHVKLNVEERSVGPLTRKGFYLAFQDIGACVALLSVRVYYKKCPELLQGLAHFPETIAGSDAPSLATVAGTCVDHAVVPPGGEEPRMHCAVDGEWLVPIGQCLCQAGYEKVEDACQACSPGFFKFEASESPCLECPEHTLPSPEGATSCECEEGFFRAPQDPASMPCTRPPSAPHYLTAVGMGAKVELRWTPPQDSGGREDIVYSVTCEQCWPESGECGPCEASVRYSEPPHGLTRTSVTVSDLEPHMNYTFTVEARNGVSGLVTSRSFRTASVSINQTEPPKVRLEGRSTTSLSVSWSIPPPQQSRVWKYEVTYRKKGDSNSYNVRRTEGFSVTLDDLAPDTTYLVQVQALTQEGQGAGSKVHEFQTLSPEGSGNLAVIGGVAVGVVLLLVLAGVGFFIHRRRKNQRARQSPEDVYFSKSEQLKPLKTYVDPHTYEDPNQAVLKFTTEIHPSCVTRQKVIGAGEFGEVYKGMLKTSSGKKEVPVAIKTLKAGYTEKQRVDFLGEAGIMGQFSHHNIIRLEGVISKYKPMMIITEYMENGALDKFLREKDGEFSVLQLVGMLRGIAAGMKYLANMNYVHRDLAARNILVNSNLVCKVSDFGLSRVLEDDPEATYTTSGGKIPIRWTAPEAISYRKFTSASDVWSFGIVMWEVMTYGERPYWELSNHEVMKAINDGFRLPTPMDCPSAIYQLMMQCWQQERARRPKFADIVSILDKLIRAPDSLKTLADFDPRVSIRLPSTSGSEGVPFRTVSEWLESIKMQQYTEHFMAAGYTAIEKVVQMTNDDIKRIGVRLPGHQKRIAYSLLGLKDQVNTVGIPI
UniProt Q01974, residues 34-943: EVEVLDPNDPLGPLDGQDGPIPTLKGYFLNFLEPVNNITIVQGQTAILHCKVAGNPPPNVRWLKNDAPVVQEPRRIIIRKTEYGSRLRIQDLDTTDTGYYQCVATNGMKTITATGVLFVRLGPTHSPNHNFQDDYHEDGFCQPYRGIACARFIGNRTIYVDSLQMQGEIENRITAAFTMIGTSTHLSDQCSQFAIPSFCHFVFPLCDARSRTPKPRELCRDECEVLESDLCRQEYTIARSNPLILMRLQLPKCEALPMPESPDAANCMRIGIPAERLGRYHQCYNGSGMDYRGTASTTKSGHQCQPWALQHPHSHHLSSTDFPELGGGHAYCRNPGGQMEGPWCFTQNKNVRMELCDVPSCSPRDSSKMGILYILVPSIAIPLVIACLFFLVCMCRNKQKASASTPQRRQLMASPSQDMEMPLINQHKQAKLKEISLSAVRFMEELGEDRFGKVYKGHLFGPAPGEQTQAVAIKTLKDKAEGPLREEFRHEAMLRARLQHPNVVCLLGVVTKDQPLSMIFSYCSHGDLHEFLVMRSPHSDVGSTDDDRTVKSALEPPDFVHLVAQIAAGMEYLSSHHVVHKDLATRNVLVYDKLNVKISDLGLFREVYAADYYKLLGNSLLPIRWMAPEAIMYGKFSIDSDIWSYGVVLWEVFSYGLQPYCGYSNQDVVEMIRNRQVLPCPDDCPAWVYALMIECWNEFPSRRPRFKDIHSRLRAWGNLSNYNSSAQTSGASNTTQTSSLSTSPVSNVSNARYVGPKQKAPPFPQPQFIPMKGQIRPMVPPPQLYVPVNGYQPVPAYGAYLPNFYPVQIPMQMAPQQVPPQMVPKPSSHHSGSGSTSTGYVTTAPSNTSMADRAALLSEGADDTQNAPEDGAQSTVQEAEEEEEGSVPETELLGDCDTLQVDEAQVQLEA

Legend:
Test in all cases: proximity labelling
[1] = biological target: T1, PHACTR4-V5-miniTurboID (human) (UniProt Q8IZ21)
T1 sequence: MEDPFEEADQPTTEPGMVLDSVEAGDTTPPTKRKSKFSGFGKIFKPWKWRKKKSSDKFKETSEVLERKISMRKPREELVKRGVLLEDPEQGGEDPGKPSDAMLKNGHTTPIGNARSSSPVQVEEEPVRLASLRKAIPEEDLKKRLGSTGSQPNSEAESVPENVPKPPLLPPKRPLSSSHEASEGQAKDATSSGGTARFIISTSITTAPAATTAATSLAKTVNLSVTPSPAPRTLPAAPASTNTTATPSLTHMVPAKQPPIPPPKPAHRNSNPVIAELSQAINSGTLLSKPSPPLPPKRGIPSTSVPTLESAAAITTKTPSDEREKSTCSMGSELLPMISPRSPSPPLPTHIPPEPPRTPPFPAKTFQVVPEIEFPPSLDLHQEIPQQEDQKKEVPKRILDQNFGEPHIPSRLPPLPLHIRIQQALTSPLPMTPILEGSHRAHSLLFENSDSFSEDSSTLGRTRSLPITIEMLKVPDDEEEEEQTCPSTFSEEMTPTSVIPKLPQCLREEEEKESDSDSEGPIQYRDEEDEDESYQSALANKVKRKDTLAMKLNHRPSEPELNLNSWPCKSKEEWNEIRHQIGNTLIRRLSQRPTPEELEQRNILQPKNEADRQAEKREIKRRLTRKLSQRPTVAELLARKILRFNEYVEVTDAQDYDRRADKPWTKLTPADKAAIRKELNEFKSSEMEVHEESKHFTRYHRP

[2] = biological target: T2, RAI14-V5-miniTurboID (human) (UniProt Q9P0K7)
T2 sequence: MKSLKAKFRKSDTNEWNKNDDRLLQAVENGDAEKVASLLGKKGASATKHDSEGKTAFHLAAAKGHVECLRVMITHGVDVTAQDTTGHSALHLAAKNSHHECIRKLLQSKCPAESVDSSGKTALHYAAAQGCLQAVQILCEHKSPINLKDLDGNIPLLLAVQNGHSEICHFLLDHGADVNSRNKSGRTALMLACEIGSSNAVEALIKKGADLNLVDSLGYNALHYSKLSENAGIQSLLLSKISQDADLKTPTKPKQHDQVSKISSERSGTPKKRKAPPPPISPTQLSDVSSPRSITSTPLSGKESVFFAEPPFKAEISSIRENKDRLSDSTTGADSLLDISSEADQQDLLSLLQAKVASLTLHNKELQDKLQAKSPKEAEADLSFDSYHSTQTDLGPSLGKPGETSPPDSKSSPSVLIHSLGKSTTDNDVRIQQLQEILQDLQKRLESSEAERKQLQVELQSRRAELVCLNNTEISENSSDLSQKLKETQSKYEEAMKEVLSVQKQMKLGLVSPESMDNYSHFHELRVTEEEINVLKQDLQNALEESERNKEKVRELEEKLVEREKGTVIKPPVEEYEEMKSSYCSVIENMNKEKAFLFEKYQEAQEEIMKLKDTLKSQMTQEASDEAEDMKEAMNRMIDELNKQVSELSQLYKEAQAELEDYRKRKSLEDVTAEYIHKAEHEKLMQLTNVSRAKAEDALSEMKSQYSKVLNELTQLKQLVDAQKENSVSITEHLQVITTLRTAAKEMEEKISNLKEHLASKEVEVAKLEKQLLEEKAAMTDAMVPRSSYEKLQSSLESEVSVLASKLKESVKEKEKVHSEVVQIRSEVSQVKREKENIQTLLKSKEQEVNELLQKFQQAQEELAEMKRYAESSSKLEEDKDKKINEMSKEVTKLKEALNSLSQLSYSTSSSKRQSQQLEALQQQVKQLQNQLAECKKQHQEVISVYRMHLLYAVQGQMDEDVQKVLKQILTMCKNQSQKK

[3] = biological target: EPHA2-V5-miniTurboID (human) (UniProt P29317)
[4] = biological target: T3, VANGL2-BirA*-HA (human) (UniProt Q9ULK5)
T3 sequence: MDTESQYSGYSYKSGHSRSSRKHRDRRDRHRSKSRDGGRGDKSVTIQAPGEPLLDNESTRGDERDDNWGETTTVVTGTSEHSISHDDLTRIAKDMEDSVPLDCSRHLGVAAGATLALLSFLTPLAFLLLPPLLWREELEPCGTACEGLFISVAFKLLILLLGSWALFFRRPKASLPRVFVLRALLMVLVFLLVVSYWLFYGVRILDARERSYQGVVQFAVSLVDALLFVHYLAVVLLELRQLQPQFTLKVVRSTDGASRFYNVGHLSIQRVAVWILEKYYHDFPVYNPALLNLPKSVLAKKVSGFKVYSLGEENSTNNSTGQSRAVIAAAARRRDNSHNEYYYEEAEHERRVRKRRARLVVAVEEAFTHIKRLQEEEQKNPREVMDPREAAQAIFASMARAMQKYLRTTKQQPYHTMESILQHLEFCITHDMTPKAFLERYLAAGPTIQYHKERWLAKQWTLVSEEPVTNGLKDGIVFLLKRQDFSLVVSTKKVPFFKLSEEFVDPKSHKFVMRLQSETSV

binding [1]: binds
binding [2]: binds
binding [3]: binds
Molecule: ROR2 (endogenous) (from UniProt Q01974 34-943) (receptor)

binding [4]: binds
B1: SEC24B (protein, UniProt O95487 1-1268)
chain: MSAPAGSSHPAASARIPPKFGGAAVSGAAAPAGPGAGPAPHQQNGPAQNQMQVPSGYGLHHQNYIAPSGHYSQGPGKMTSLPLDTQCGDYYSALYTVPTQNVTPNTVNQQPGAQQLYSRGPPAPHIVGSTLGSFQGAASSASHLHTSASQPYSSFVNHYNSPAMYSASSSVASQGFPSTCGHYAMSTVSNAAYPSVSYPSLPAGDTYGQMFTSQNAPTVRPVKDNSFSGQNTAISHPSPLPPLPSQQHHQQQSLSGYSTLTWSSPGLPSTQDNLIRNHTGSLAVANNNPTITVADSLSCPVMQNVQPPKSSPVVSTVLSGSSGSSSTRTPPTANHPVEPVTSVTQPSELLQQKGVQYGEYVNNQASSAPTPLSSTSDDEEEEEEDEEAGVDSSSTTSSASPMPNSYDALEGGSYPDMLSSSASSPAPDPAPEPDPASAPAPASAPAPVVPQPSKMAKPFGYGYPTLQPGYQNATAPLISGVQPSNPVYSGFQQYPQQYPGVNQLSSSIGGLSLQSSPQPESLRPVNLTQERNILPMTPVWAPVPNLNADLKKLNCSPDSFRCTLTNIPQTQALLNKAKLPLGLLLHPFRDLTQLPVITSNTIVRCRSCRTYINPFVSFIDQRRWKCNLCYRVNDVPEEFMYNPLTRSYGEPHKRPEVQNSTVEFIASSDYMLRPPQPAVYLFVLDVSHNAVEAGYLTILCQSLLENLDKLPGDSRTRIGFMTFDSTIHFYNLQEGLSQPQMLIVSDIDDVFLPTPDSLLVNLYESKELIKDLLNALPNMFTNTRETHSALGPALQAAFKLMSPTGGRVSVFQTQLPSLGAGLLQSREDPNQRSSTKVVQHLGPATDFYKKLALDCSGQQTAVDLFLLSSQYSDLASLACMSKYSAGCIYYYPSFHYTHNPSQAEKLQKDLKRYLTRKIGFEAVMRIRCTKGLSMHTFHGNFFVRSTDLLSLANINPDAGFAVQLSIEESLTDTSLVCFQTALLYTSSKGERRIRVHTLCLPVVSSLADVYAGVDVQAAICLLANMAVDRSVSSSLSDARDALVNAVVDSLSAYGSTVSNLQHSALMAPSSLKLFPLYVLALLKQKAFRTGTSTRLDDRVYAMCQIKSQPLVHLMKMIHPNLYRIDRLTDEGAVHVNDRIVPQPPLQKLSAEKLTREGAFLMDCGSVFYIWVGKGCDNNFIEDVLGYTNFASIPQKMTHLPELDTLSSERARSFITWLRDSRPLSPILHIVKDESPAKAEFFQHLIEDRTEAAFSYYEFLLHVQQQICK

Results are given in words; binding and its absence hold for the method and conditions named. In cells and extracts the contact can be indirect. A yes stands for co-enrichment or nearness to the bait. Other partners may have been found. For some of these results: Where a sequence is shown, tags or fusion partners need not be part of it. One block for each molecule: values may come before it.
